PubChem BioAssay AID743454, Peter MacCallum Cancer Centre, 2014
Test: 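Search for knock-downs that restore vorinostat killing in resistant colon cancer cells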 (primary screen). System: human HCT116-VR colon cancer cells, selected for vorinostat resistance. Reagents: siRNA pool against human genes, 40 nM siRNA pool. Time to read-out: vorinostat for 24 h, read-out about 72 h after transfection. Treatment: vorinostat at 2.5 µM final. Measured: 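Cell viability by CellTiter-Fluor and caspase 3/7 activity by luminescence, each scaled to mock wells per plate, duplicates averaged, then robust z-scored over all plates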. Reading the numbers: viability robust z-score: higher = more viable cells than screen typical; caspase robust z-score: higher = more caspase 3/7 activity than screen typical. Rule for the call: 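Hits are knock-downs in viability class RV1/RV2 or caspase class CA1/CA2, excluding ones that killed cells in the no-drug cell-count arm; hits then retested with single siRNAs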.
The whole screen tested about 18,000 reagents; below is a part drawn at random. 450 of all reagents (2.5%) were called active. 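Single biological run; no consistent viability z cut-off exists, so the class columns, not z-scores, define the calls.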 Entries without a mark were called inactive. Reagents against one gene are numbered here. Reagent sequences are not shown.

| Target gene | reagent | viability hit class | caspase hit class | viability robust z-score | caspase robust z-score |
| --- | --- | --- | --- | --- | --- |
| SLC9A4 | 1 | no change | no change | 1.88 | -0.43 |
| FKBP10 | 1 | no change | no change | -1 | -0.18 |
| PARK7 | 1 | no change | no change | 1.01 | 1.54 |
| SEMA4D | 1 | no change | no change | 0.76 | 1.07 |
| SEMA4D | 2 | no change | no change | -0.12 | 1.79 |
| SRRT | 1 | no change | no change | -0.36 | -0.99 |
| FICD | 1 | no change | no change | -0.18 | -1.4 |
| HOXC6 | 1 | no change | no change | 0.72 | 0.27 |
| SLC45A4 | 1 | no change | no change | 0.03 | -0.95 |
| SPRR2E | 1 | no change | no change | -1.87 | -1.15 |
| MPPED2 | 1 | no change | no change | -0.74 | 1.21 |
| PCYT1A | 1 | no change | no change | -0.02 | -0.08 |
| PRSS53 | 1 | no change | no change | 0.42 | 2.43 |
| UBXN6 | 1 | no change | no change | -0.3 | 1.89 |
| NOB1 | 1 | no change | no change | -0.4 | 4.79 |
| ATRNL1 | 1 | no change | no change | -0.06 | -0.6 |
| ZNF22-AS1 | 1 | no change | no change | -0.19 | -0.46 |
| HDDC2 | 1 | no change | no change | 0.81 | 0.16 |
| IRF6 | 1 | no change | no change | 0.85 | 0.11 |
| SINHCAF | 1 | no change | no change | -1.04 | 1.45 |
| ZNF667 | 1 | no change | no change | 0.6 | -0.73 |
| VPS8 | 1 | no change | no change | 0.56 | 0.12 |
| EZH1 | 1 | no change | no change | 1.1 | 0.14 |
| FGF12 | 1 | no change | no change | -0.16 | 0.3 |
| CCS | 1 | no change | no change | -0.3 | 1.74 |
| ATG16L2 | 1 | no change | no change | 0.26 | 2.76 |

2 entries from above, arranged by “viability robust z-score”, ascending.
| Target gene | reagent | viability hit class | caspase hit class | viability robust z-score | caspase robust z-score |
| --- | --- | --- | --- | --- | --- |
| ZNF22-AS1 | 1 | no change | no change | -0.19 | -0.46 |
| HDDC2 | 1 | no change | no change | 0.81 | 0.16 |

The results go on.
| Target gene | reagent | viability hit class | caspase hit class | viability robust z-score | caspase robust z-score |
| --- | --- | --- | --- | --- | --- |
| ARHGEF5 | 1 | no change | no change | 1.42 | 0.45 |
| ASPG | 1 | no change | no change | -0.33 | -0.21 |
| WNT2B | 1 | no change | no change | 1.73 | -0.06 |
| CLCA4 | 1 | no change | no change | -0.34 | -0.57 |
| SERTAD2 | 1 | no change | no change | -2.29 | -0.5 |
| MAGEL2 | 1 | no change | no change | 0.38 | 0.7 |
| MSANTD4 | 1 | no change | no change | -0.43 | -0.62 |
| IMPACT | 1 | no change | no change | -2 | 2.72 |
| ADGRB1 | 1 | no change | no change | 0.58 | 0.44 |
| PCK2 | 1 | no change | no change | 0.37 | -0.14 |
| COPS7A | 1 | no change | no change | -0.62 | 1.69 |
| NKG7 | 1 | no change | no change | 0.45 | 0.08 |
| ASCC1 | 1 | no change | no change | 0.62 | -1.2 |
